Test results reported in US20100021918A1, “METHOD FOR ASSAYING ACTION OF ANTITUMOR AGENT USING SPLICING DEFECTS AS INDEX” (Eisai R&D Management Co., Ltd., priority 2007, published 2010).
The source gives many values for each of these; only a part stands here.

Tested on: human colon carcinoma cell strain WiDr
Experiment: Microarray analysis (2), reviewed conditions, intron expression, Table 3
Assay type: cell-based
Description: WiDr cells were first suspended in RPMI1640 medium (containing 10% FBS, penicillin, and streptomycin) and seeded in a 10 cm dish (2×10^6 cells/dish). After an overnight culture in an incubator with 5% carbon dioxide gas at 37° C., the medium was changed with medium containing 14 nM of (8E,12E,14E)-7-((4-cycloheptylpiperazin-1-yl)carbonyl)oxy-3,6,16,21-tetrahydroxy-6,10,12,16,20-pentamethyl-18,19-epoxytricosa-8,12,14-trien-11-olide or containing vehicle alone. After cultured for additional six hours, TRI reagent (SIGMA) were added to the cells and the cells were harvested. RNA was purified in accordance with the protocol of TRI reagent, followed by further purification with RNeasy (QIAGEN). Absorbance at 260 nm was measured to quantify an amount of RNA. This experiment was repeated three times and RNA samples (n=3) were prepared.
Ribosomal RNA was removed from 1 μg of each total RNA of control cells (n=3) and cells with the treatment (n=3) by using RiboMinus Human/Mouse Transcriptome Isolation Kit (Invitrogen). Single stranded cDNA synthesis, double stranded cDNA synthesis, cRNA synthesis, second single stranded cDNA synthesis, cDNA fragmentation, and cDNA labeling in order were carried out for the total RNA from which ribosomal RNA was removed, by using GeneChip Whole Transcript Sense Target Labeling and Control Reagents (Affymetrix) to make a cDNA probe. The cDNA probe was used for hybridization with Human Exon 1.0 ST Array (Affymetrix). The array was washed and stained, and luminescence intensity was measured by a scanner.
Analysis conditions were reviewed in the data used in Example 3. Genes containing increased introns upon treatment with (8E,12E,14E)-7-((4-cycloheptylpiperazin-1-yl)carbonyl)oxy-3,6,16,21-tetrahydroxy-6,10,12,16,20-pentamethyl-18,19-epoxytricosa-8,12,14-trien-11-olide were identified.
In order to consider the analysis conditions, variations in the data from the samples with identical conditions were studied. […] It turned out that, by analyzing under conditions where the expression level was more than 100 and change in the expression level was more than five times, a probe set with increased expression can be extracted.
Probe sets showing that the normalized change in the level expression of the probe set in the group with the treatment was more than 5 times; the expression level of the probe set and the gene in the group with the treatment were more than 100; and probe set annotation was “extended, full, free”, were picked out. Welch's t-test was conducted with the probe sets extracted for the treated group and the control group to determine a p and q value. A gene containing the probe sets with the q value of less than 5% was determined as a candidate gene with increased expression level of the intron regions (Table 3).
In Table 3, for each gene evaluated, gene name (Gene Name), abbreviated name (Gene Symbol), accession number (Accession), alias name (Synonym), transcription cluster number in Human Exon 1.0 ST Array (Human Exon 1.0 ST Array Transcript Cluster ID), chromosome number (Chromosome), type of strand (Strand), start region (Start), stop region (Stop), and change in expression level (Fold Change) were respectively shown.

CCC(O)C(C)C1OC1CC(C)(O)/C=C/C=C(\C)C1OC(=O)CC(O)CCC(C)(O)C(OC(=O)N2CCN(C3CCCCCC3)CC2)/C=C/C1C (stereo not shown) [E7107, (8E,12E,14E)-7-((4-cycloheptylpiperazin-1-yl)carbonyl)oxy-3,6,16,21-tetrahydroxy-6,10,12,16,20-pentamethyl-18,19-epoxytricosa-8,12,14-trien-11-olide]
Fold Change (Gene Symbol STOML2 // FANCG, Transcript Cluster ID 3204534): 5.74
Fold Change (Gene Symbol SUZ12, Transcript Cluster ID 3717395): 5.55
Fold Change (Gene Symbol SYF2 // MXI1 // C1orf63, Transcript Cluster ID 2402068): 5.47
Fold Change (Gene Symbol TLK1, Transcript Cluster ID 2586603): 5.55
Fold Change (Gene Symbol TM2D3, Transcript Cluster ID 3642358): 5.62
Fold Change (Gene Symbol TMEM11, Transcript Cluster ID 3749767): 5.77
Fold Change (Gene Symbol TMEM70, Transcript Cluster ID 3103494): 5.82
Fold Change (Gene Symbol TMEM115, Transcript Cluster ID 2675304): 5.76
Fold Change (Gene Symbol TNFRSF21, Transcript Cluster ID 2956052): 5.80
Fold Change (Gene Symbol TOE1, Transcript Cluster ID 2334319): 5.67
Fold Change (Gene Symbol TRAF2, Transcript Cluster ID 3194896): 5.56
Fold Change (Gene Symbol TRAF4, Transcript Cluster ID 3715839): 5.71
Fold Change (Gene Symbol TRIM28, Transcript Cluster ID 3844238): 5.84
Fold Change (Gene Symbol TXLNA // DCDC2B, Transcript Cluster ID 2328713): 5.52
Fold Change (Gene Symbol UBE2D3, Transcript Cluster ID 2779992): 5.61
Fold Change (Gene Symbol UBE3C, Transcript Cluster ID 3033924): 5.68
Fold Change (Gene Symbol UBXD8, Transcript Cluster ID 2842570): 5.48
Fold Change (Gene Symbol USP3, Transcript Cluster ID 3597603): 5.54
Fold Change (Gene Symbol USP6NL, Transcript Cluster ID 3277468): 5.65
Fold Change (Gene Symbol UTP14A, Transcript Cluster ID 3990566): 5.93
Fold Change (Gene Symbol UTP18, Transcript Cluster ID 3726992): 5.49
Fold Change (Gene Symbol VCP // FANCG, Transcript Cluster ID 3204404): 5.58
Fold Change (Gene Symbol WDR26, Transcript Cluster ID 2458082): 5.74
Fold Change (Gene Symbol XRN2, Transcript Cluster ID 3879467): 5.69
Fold Change (Gene Symbol YY1, Transcript Cluster ID 3551677): 5.89
Fold Change (Gene Symbol ZBTB9 // SYNGAP1, Transcript Cluster ID 2903703): 5.82
Fold Change (Gene Symbol ZFAND3, Transcript Cluster ID 2905664): 5.93
Fold Change (Gene Symbol ZNF259, Transcript Cluster ID 3392871): 5.86
Fold Change (Gene Symbol ZNF593, Transcript Cluster ID 2326311): 5.90
Fold Change (gene 6-Mar (membrane-associated ring finger (C3HC4) 6), Transcript Cluster ID 2801608): 5.20
Fold Change (gene 15-Sep (15 kDa selenoprotein), change in expression level, treated vs control): 13.02
Fold Change (gene ABCC1, change in expression level, treated vs control): 6.18
Fold Change (gene ABCF1, Transcript Cluster ID 2901687): 5.42
Fold Change (gene ABCF3, Transcript Cluster ID 2655511, intron expression, treated vs control): 10.26
Fold Change (gene ABI2, change in expression level, treated vs control): 6.27
Fold Change (gene ABLIM3, change in expression level, treated vs control): 6.47
Fold Change (gene ABT1, intron expression, treated vs control): 6.59
Fold Change (gene ACSL3, change in expression level, treated vs control): 16.27
Fold Change (gene ACTG1, Transcript Cluster ID 3773932, intron expression, treated vs control): 9.32
Fold Change (gene ACTN1, change in expression level, treated vs control): 14.26
Fold Change (gene ACTN4, change in expression level, treated vs control): 6.06
Fold Change (gene ADAM10, change in expression level, treated vs control): 6.00
Fold Change (gene ADIPOR2, change in expression level, treated vs control): 11.05
Fold Change (gene ADRM1, Transcript Cluster ID 3892607, intron expression, treated vs control): 9.05
Fold Change (gene AFF4, Transcript Cluster ID 2875555, intron expression, treated vs control): 9.38
Fold Change (gene AK2, Transcript Cluster ID 2405364, intron expression, treated vs control): 9.45
Fold Change (gene AKAP1, Transcript Cluster ID 3728097): 5.18
Fold Change (gene AKAP12, intron expression, treated vs control): 7.27
Fold Change (gene AKAP13, change in expression level, treated vs control): 13.65
Fold Change (gene ALKBH2, Transcript Cluster ID 3470689): 5.13
Fold Change (gene ALKBH3, Transcript Cluster ID 3328214): 5.10
Fold Change (gene AMOTL2, intron expression, treated vs control): 7.06
Fold Change (gene ANKRD13D, Transcript Cluster ID 3336857): 5.45
Fold Change (gene ANKRD17, change in expression level, treated vs control): 6.50
Fold Change (gene ANXA2, change in expression level, treated vs control): 6.06
Fold Change (gene AP1G1, intron expression, treated vs control): 6.57
Fold Change (gene AP2A2, intron expression, treated vs control): 7.01
Fold Change (gene APTX, Transcript Cluster ID 3203311): 5.03
Fold Change (gene AQR, change in expression level, treated vs control): 11.56
Fold Change (gene ARF4, intron expression, treated vs control): 6.96
Fold Change (gene ARFGEF1, change in expression level, treated vs control): 21.19
Fold Change (gene ARFIP2 // SLCO6A1, Transcript Cluster ID 3360941, intron expression, treated vs control): 10.24
Fold Change (gene ARHGAP11A, change in expression level, treated vs control): 12.06
Fold Change (gene ARHGAP12, Transcript Cluster ID 3283920, intron expression, treated vs control): 8.93
Fold Change (gene ARHGAP21, intron expression, treated vs control): 6.71
Fold Change (gene ARHGEF12, change in expression level, treated vs control): 14.21
Fold Change (gene ARHGEF18, Transcript Cluster ID 3818732): 5.05
Fold Change (gene ARL6IP2, change in expression level, treated vs control): 13.57
Fold Change (gene ARL6IP4, change in expression level, treated vs control): 6.48
Fold Change (gene ARRDC3, intron expression, treated vs control): 6.67
Fold Change (gene ASNSD1, change in expression level, treated vs control): 6.46
Fold Change (gene ATAD1, Transcript Cluster ID 3299255): 5.12
Fold Change (gene ATG3, change in expression level, treated vs control): 6.39
Fold Change (gene ATG16L1, change in expression level, treated vs control): 6.50
Fold Change (gene ATP1B1, change in expression level, treated vs control): 11.44
Fold Change (gene ATP2A2, change in expression level, treated vs control): 6.26
Fold Change (gene ATP5B, Transcript Cluster ID 3458033): 5.11
Fold Change (gene ATP5I, intron expression, treated vs control): 7.14
Fold Change (gene AUP1 // DQX1, Transcript Cluster ID 2560254, intron expression, treated vs control): 9.38
Fold Change (gene AURKA // STK6P, change in expression level, treated vs control): 6.30
Fold Change (gene AXIN1, Transcript Cluster ID 3675047): 5.41
Fold Change (gene BAG1, intron expression, treated vs control): 6.68
Fold Change (gene BAT4, change in expression level, treated vs control): 6.21
Fold Change (gene BCAR3, Transcript Cluster ID 2423422): 5.15
Fold Change (gene BCL10, change in expression level, treated vs control): 12.67
Fold Change (gene BCLAF1, Transcript Cluster ID 2975680, intron expression, treated vs control): 8.99
Fold Change (gene BIRC5, Transcript Cluster ID 3736290): 5.29
Fold Change (gene BMI1, change in expression level, treated vs control): 18.11
Fold Change (gene BRD1, change in expression level, treated vs control): 6.12
Fold Change (gene BRD2, intron expression, treated vs control): 7.20
Fold Change (gene BTBD3, Transcript Cluster ID 3876645): 5.12
Fold Change (gene BTF3, Transcript Cluster ID 2815331): 5.43
Fold Change (gene BUB1, Transcript Cluster ID 2570616, intron expression, treated vs control): 9.36
Fold Change (gene BUD31, Transcript Cluster ID 3014742): 5.13
Fold Change (gene BXDC1, change in expression level, treated vs control): 14.38
Fold Change (gene BXDC2, change in expression level, treated vs control): 17.08
Fold Change (gene C1QDC1, Transcript Cluster ID 3449368): 5.44
Fold Change (gene C1orf77, Transcript Cluster ID 2359736): 5.18
Fold Change (gene C1orf174, change in expression level, treated vs control): 6.06
Fold Change (gene C3orf17, Transcript Cluster ID 2688882, intron expression, treated vs control): 10.73
Fold Change (gene C4orf23, change in expression level, treated vs control): 11.25
Fold Change (gene C5orf22, intron expression, treated vs control): 7.26
Fold Change (gene C6orf94 // LTV1, change in expression level, treated vs control): 13.35
